# Measured data: PubChem BioAssay AID504784 (Drosophila RNAi Screening Center, 2011)
# Purpose: 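Fly genes whose silencing alters how much lipid cells keep in droplets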 (primary screen)
# Cell system: Drosophila Kc167 embryonic cells
# Knock-down reagent: long dsRNA against Drosophila genes, about 250 ng dsRNA per well
# Duration: 4 days
# Challenge: cells fed 400 µM oleic acid bound to BSA
# Detection: 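Microscope images give a droplet-to-nucleus area ratio, taken as log and converted to a screen-wide B-score; higher values mean greater lipid storage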
# Reading the numbers: droplet/nuclear area B-score: higher = more stored lipid (overstorage)
# The deposit covers about 17,000 reagents; below is an unselected part of those that have a named target and a result. 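Each column is one replicate's B-score; the combined score over replicates was not deposited, so single values may mislead.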 Further read-outs or replicates are left out here.
gene knocked down,dsRNA,"droplet/nuclear area B-score, replicate 1"
RpL13A,DRSC12265,1.95
CG30356,DRSC05119,3.08
Top3beta,DRSC18724,1.4
Efhc1.1,DRSC20135,-0.68
CG17612,DRSC00505,0.268
nvd,DRSC22139,0.722
iotaTry,DRSC07634,2.3
Cyp49a1,DRSC06737,-0.841
Cyp49a1,DRSC07367,-0.351
polo,DRSC11384,1.42
polo,DRSC22359,4.05
yip2,DRSC03640,0.174
Cpr,DRSC03293,0.809
brwl,DRSC01080,-0.742
brwl,DRSC02729,-0.501
IleRS-m,DRSC10506,-1.02
rec,DRSC14998,-1.17
rec,DRSC15656,-0.115
CG31407,DRSC12761,0.0845
Cdc42,DRSC20228,0.423
mbm,DRSC00319,0.952
CG15225,DRSC04232,-0.67
CG15225,DRSC23269,0.0224
CG8774,DRSC16445,0.224
Cpr65Az,DRSC09882,-1.12
Cpr65Az,DRSC22057,-0.688
CG16741,DRSC06622,3.15
CG10979,DRSC12153,0.183
TrpA1,DRSC10544,0.619
Prtl99C,DRSC15049,-0.0547
cdi,DRSC16922,0.0237
CG32161,DRSC22128,-0.023
CG18659,DRSC06784,-0.389
CG14570,DRSC11731,3.05

Laid out differently: results already given.
{"gene knocked down": "CG30356", "dsRNA": "DRSC05119", "droplet/nuclear area B-score, replicate 1": 3.08}
{"gene knocked down": "Top3beta", "dsRNA": "DRSC18724", "droplet/nuclear area B-score, replicate 1": 1.4}
{"gene knocked down": "Efhc1.1", "dsRNA": "DRSC20135", "droplet/nuclear area B-score, replicate 1": -0.68}
{"gene knocked down": "CG17612", "dsRNA": "DRSC00505", "droplet/nuclear area B-score, replicate 1": 0.268}
{"gene knocked down": "nvd", "dsRNA": "DRSC22139", "droplet/nuclear area B-score, replicate 1": 0.722}
{"gene knocked down": "iotaTry", "dsRNA": "DRSC07634", "droplet/nuclear area B-score, replicate 1": 2.3}
{"gene knocked down": "Cyp49a1", "dsRNA": "DRSC06737", "droplet/nuclear area B-score, replicate 1": -0.841}
{"gene knocked down": "Cyp49a1", "dsRNA": "DRSC07367", "droplet/nuclear area B-score, replicate 1": -0.351}
{"gene knocked down": "polo", "dsRNA": "DRSC11384", "droplet/nuclear area B-score, replicate 1": 1.42}
{"gene knocked down": "polo", "dsRNA": "DRSC22359", "droplet/nuclear area B-score, replicate 1": 4.05}
{"gene knocked down": "yip2", "dsRNA": "DRSC03640", "droplet/nuclear area B-score, replicate 1": 0.174}

The list goes on:
gene knocked down,dsRNA,"droplet/nuclear area B-score, replicate 1"
Ir60b,DRSC04217,-0.172
ds,DRSC00815,-1.09
Pcif1,DRSC11655,0.273
CG8157,DRSC07085,-0.0697
CG8157,DRSC21595,0.376
CG18327,DRSC06722,1.14
CG6357,DRSC06979,-2.62
FoxP,DRSC15159,-0.0337
FoxP,DRSC21961,-1.12
Tk,DRSC14954,1.37
Tk,DRSC21972,-0.157
CG43102,DRSC14797,-1.05
CG43102,DRSC16239,0.945
CG31036,DRSC15055,0.222
CG31036,DRSC15057,-1.52
CG9822,DRSC04568,-0.582
Tango2,DRSC19394,-0.675
Tango2,DRSC21526,-0.197
alpha-Man-IIa,DRSC15393,0.813
CG17196,DRSC15189,-1.38
prod,DRSC07667,1.43
Edem1,DRSC18573,0.0142
CG17207,DRSC15198,-0.71
Cyp6a8,DRSC07384,-0.652
Lkb1,DRSC16481,-3.18
mtm,DRSC03576,-0.449
CG31809,DRSC01561,0.835
Sry-beta,DRSC16868,0.959
bnl,DRSC13377,-0.178
bnl,DRSC16913,-1.38
bnl,DRSC23212,0.416
CG13386,DRSC02260,-0.123
Baldspot,DRSC09671,-0.882
CG13255,DRSC11702,0.374
AnxB10,DRSC20677,-0.265
Cyt-c-d,DRSC03309,-0.23
Cib2,DRSC04535,-0.0962
CG6712,DRSC02981,0.976
CG6712,DRSC21690,0.00746
CG18294,DRSC09891,0.043
sl,DRSC20377,1.21
sl,DRSC21782,1.22
Wdr62,DRSC00081,-0.917
Wdr62,DRSC00701,1.46
Wdr62,DRSC21913,0.0848
CG34408,DRSC17733,1.62
CG34408,DRSC21926,-0.215
CG34408,DRSC23056,-0.171
Eato,DRSC01891,1.65
Eato,DRSC03061,-0.479
